Assay results from patent US20110318270A1, “DRUG IDENTIFICATION PROTOCOL FOR TYPE 2 DIABETES BASED ON GENE EXPRESSION SIGNATURES” (VERVA PHARMACEUTICALS LTD, priority 2009, published 2011).

System: Diet-induced obese (DIO) mice
Assay: Insulin sensitising effects of CAIs in diet-induced obese mice
Type: in vivo
Conditions: 50 mg/kg/day for 14 days, intraperitoneal glucose tolerance test
Procedure: Diet-induced obese (DIO) mice were treated with each CAI at 50 mg/kg/day for 14 days.

NS(=O)(=O)c1cc(C(=O)O)c(NCc2ccco2)cc1Cl [furosemide]
reduction in the incremental area under the glucose curve (AUC) compared with vehicle-treated animals / glucose disposal: did not affect glucose disposal
